# In patent US4046878A, “Daunomycin analogues, their preparation and use” (Societa' Farmaceutici Italia S.p.A., priority 1974, dated 1977):
# The name of at least one read-out is uncertain.
# System: mouse embryo fibroblast cultures
# Assay: Cell proliferation in uninfected mouse embryo fibroblast cultures (cytotoxic activity)
# Settings: 3 days
smiles,measurement,setting,value
"CC(=O)C1(O)Cc2c(O)c3c(c(O)c2C(O[C@H]2C[C@H](N)[C@H](O)[C@H](C)O2)C1)C(=O)c1ccccc1C3=O (mixture of isomers) [Test Compound, mixture of the α-anomers of (-)daunosaminyl(-)4-demethoxydaunomycinone and (-(daunosaminyl(+)4-demethoxydaunomycinone]",% Cells (control = 100),0.006 γ/ml,46%
same,% Cells (control = 100),0.0250 γ/ml,38%
same,% Cells (control = 100),0.1 γ/ml,4.6%
same,% Cells (control = 100),0.6 γ/ml,0%
